# Results of single-concentration screens

Results are given as percent effect.
The record does not define 0% and 100%; most values in the screen are far below 50% and negative numbers occur (in some assays of this library far below -100).
Compounds were drawn at random from those tested, without regard to their results.
Two or more numbers in one place are separate tests of the same structure; such repeats can differ widely.

Mtb cholesterol medium: 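Phenotypic screen: M. tuberculosis growth, cholesterol and DPPC medium, 4 days; the read-out is not stated. Concentration: 50 µM. Higher reads as more growth inhibition (inferred: compounds with an IC50 in retests scored well above the rest). About 69,000 compounds were tested under these conditions; 0.54% (about 370) showed 50% or more at least once.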
Mtb glucose medium: 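Growth of Mycobacterium tuberculosis over 3 days (7H9 medium with glucose and tyloxapol); the read-out is not stated. Concentration: 50 µM. Direction is inferred from retests: higher values go with more growth inhibition. Of about 69,000 compounds tested this way, about 760 (1.1%) reached 50% or more in at least one test.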

structure,Mtb cholesterol medium,Mtb glucose medium
O=C1CC(N(C(=O)c2ccc(Cl)c(Cl)c2)C2CC2)C(=O)N1 (configuration not stated),-6.91,-20.66
O=C(O)C(F)(F)F.O=C(O)C(F)(F)F.[H][C@@]12CCCO[C@]1([H])[C@H](NC(=O)CC1CC1)CN(Cc1cccnc1)C2,-0.5259,-1.757 & -10.41
CCN1CC2(CCC1=O)CCN(C(=O)c1ccc(C)cc1O)CC2,1.18,4.597
Cc1ccc(CNCCOc2ccc(S(C)(=O)=O)cc2)cc1,-8.457,-33.48
Cc1nn(-c2ccc(C(=O)O)cc2)c2c1C(c1ccsc1)SCC(=O)N2 (configuration not stated),-19.1,7.235 & 5.822
CCn1cc(-c2c(C)c(C3CCOC(C)(C)C3)nc(N)c2C#N)cn1 (configuration not stated),-31.76 & 18.72,-9.67
Cc1cccc(N2CCN(CCC(=O)NCc3ccc(C)s3)CC2)c1,-7.463 & 3.18,1.432
COCCN1CCC2(CC1)CC(N1CCOCC1)c1ccc(C)cc12.O=C(O)C(F)(F)F.O=C(O)C(F)(F)F (configuration not stated),-15.04,-16.7
O=C(c1ccc2c(c1)OCO2)N1CCCSCC1CN1CCCC1 (configuration not stated),13.5,6.975
O=C(O)C(F)(F)F.[H][C@]12CCC(=O)N(Cc3ccncc3)[C@@]1([H])CCN2C(=O)Cc1ccccc1,-26.99,5.024
O=C1CC(c2ccc(C(=O)O)cc2)c2cnn(Cc3ccco3)c2N1 (configuration not stated),3.612,22.33
Cc1nn(CC(C)C)c(N(C)C)c1CNCc1cc2ccccc2[nH]1,-7.868,6.039
CC(C)CCCNC(=O)Nc1ccc(Cl)c(C(N)=O)c1,19.8,23.29
O=C(Nc1cccc(CNCc2cccs2)c1)C1CCCC1,-16.86,10.25
O=C(O)C(F)(F)F.[H][C@@]12CN(C(=O)C3CCOC3)C[C@]1([H])C(=O)N(Cc1cccnc1)C2 (some centres not stated),-30.86,-12.89
O=C(N1CCCC1)N1CCn2c(nnc2C2CCCN2)C1 (configuration not stated),-25.67,-5.675
Cc1nnc(-c2cccc(N3CCC(NC(C)CC(C)C)CC3)c2)s1 (configuration not stated),16.73,17.86 & 3.113
c1ccc(N2CCOCC3(CCCN(c4nccs4)C3)C2)nc1 (configuration not stated),26.13,17.98
CCN(c1ccc(C(=O)N2CCC(C(N)=O)CC2)cc1)S(=O)(=O)CC,13.65,35.85
[H][C@@]12COC[C@]1([H])[C@@H](OCCN(C)C)CN2C(=O)c1cscn1,-22.18,-13.76
CC(CCO)Nc1cccc(C(F)(F)F)n1 (configuration not stated),-14.75,-1.424
CCn1cc(CN2CCN(CC(O)c3cc(C)ccc3C)CC2)c(C)n1 (configuration not stated),-4.918,3.73
CC(=O)NC1CCN(c2ccnc(C3CCNCC3)c2)CC1.O=C(O)C(F)(F)F,18.74,-11.04
CC(=O)N1CCC(Cc2cncc(-c3c(C)n[nH]c3C)n2)C1 (configuration not stated),14.3,24.72
c1cnn(CC2CN(c3ncnc4sccc34)CCO2)c1 (configuration not stated),5.474 & 5.108,14.34
O=C(CN1CCCC1)N1CCCC(CNS(=O)(=O)Cc2ccccc2)C1 (configuration not stated),-0.1103,24.31
[H][C@@]12CN(C(=O)C3CCOCC3)C[C@@]1([H])N(CC(C)C)C(=O)CO2,-11.48,21.51
COc1ncc(NCc2ccsc2)cc1C(N)=O,-18.94,12.75
O=C(O)C(F)(F)F.[H][C@@]12CCN(Cc3ccc(C)s3)C[C@@]1([H])[C@H](C(=O)NCC1CC1)CCO2,-17.3,-4.671 & -39.7
Cc1cc(C(=O)N2CCCC2)ccc1NCc1nc(CC(C)C)no1,2.846,25.5
COC(=O)CN(Cc1ccccc1C)C(=O)CCCNC(=O)C1CC1,30.61,-39.96
O=C(O)C(F)(F)F.c1cnc(N2CCC3(CCN(CC4CCOC4)C3)CC2)nc1 (configuration not stated),-27.82,-18.44
O=C(O)C(F)(F)F.[H][C@@]12OCCN(S(=O)(=O)CCC)[C@@]1([H])CC[C@H]2OCc1ccccn1,-6.845 & -0.004822,-28.7
Cc1[nH]nc(CCC(=O)N2CCOC(CCc3ccccc3)C2)c1C (configuration not stated),7.385,13.77
c1nc2n(c1CN1CCOCC1)CCN(C1CCOC1)CC2 (configuration not stated),-16.14,-2.027 & -12.94
COCCSCC(=O)NC1(c2cccc(Br)c2)CC1,7.658,28.65 & -4.461
CCC(NCc1nccn1C)c1nc(C(F)(F)F)cs1 (configuration not stated),-7.618 & -23.11,-45.07 & -0.01885
CC(C)c1nccn1C1CCCN(C(=O)c2ccc3c(c2)OCO3)C1 (configuration not stated),-0.8915,19.13
Cn1cc(N2CCN(c3ccc(C#N)cc3Br)CC2=O)cn1,18.99,4.778 & 1.788
C1CCC(c2nnc3sc(C4CCOC4)nn23)C1 (configuration not stated),-4.303,10.1 & 2.632

The last 3 entries again:

- CC(C)c1nccn1C1CCCN(C(=O)c2ccc3c(c2)OCO3)C1 (configuration not stated) : Mtb cholesterol medium: -0.8915%; Mtb glucose medium: 19.13%
- Cn1cc(N2CCN(c3ccc(C#N)cc3Br)CC2=O)cn1 : Mtb cholesterol medium: 18.99%; Mtb glucose medium: 4.778% & 1.788%
- C1CCC(c2nnc3sc(C4CCOC4)nn23)C1 (configuration not stated) : Mtb cholesterol medium: -4.303%; Mtb glucose medium: 10.1% & 2.632%

Measurements from “University of Dundee, Small-Polar-MMV Screening Library” (2021), ChEMBL document CHEMBL3988442.